Source: article PMC9586991

Biological target: T1, FLAG-Rab44 expressed in B16-F1 melanoma cells (mouse) (UniProt Q8CB87)
T1 sequence: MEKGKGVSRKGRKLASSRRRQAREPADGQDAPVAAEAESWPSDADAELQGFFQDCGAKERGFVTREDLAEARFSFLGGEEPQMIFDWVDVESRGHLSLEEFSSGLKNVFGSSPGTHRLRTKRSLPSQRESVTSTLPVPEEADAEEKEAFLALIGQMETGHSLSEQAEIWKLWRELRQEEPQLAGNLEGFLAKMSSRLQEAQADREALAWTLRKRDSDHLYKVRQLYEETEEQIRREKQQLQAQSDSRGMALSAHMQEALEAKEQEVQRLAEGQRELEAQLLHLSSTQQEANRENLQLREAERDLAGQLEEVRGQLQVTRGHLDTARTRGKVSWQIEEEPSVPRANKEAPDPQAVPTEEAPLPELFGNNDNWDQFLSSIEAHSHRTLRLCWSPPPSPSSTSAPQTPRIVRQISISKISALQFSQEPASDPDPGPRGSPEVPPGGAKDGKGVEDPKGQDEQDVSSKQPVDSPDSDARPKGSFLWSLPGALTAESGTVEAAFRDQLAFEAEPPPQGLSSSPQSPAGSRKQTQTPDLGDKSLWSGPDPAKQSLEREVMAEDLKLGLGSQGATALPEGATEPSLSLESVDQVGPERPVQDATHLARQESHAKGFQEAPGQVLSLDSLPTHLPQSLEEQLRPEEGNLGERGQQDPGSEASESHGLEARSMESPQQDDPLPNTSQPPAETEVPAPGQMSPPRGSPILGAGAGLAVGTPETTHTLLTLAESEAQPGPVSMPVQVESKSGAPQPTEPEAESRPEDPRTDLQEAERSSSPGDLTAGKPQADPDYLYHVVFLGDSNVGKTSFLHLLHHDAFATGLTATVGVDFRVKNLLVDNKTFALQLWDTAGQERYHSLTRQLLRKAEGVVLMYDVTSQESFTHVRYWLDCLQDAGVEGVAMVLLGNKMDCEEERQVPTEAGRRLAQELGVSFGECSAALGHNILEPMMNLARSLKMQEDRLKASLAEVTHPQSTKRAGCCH
Assay: co-IP; B16-F1 cells transfected for 2 days with pEF-FLAG-Rab44; lysates with anti-FLAG agarose beads 16 h at 4 °C; immunoblot for the endogenous proteins

binding: binds
Substance: endogenous dynein heavy chain (mouse (endogenous in B16-F1))

No constants are given. Whether binding was seen depends on the method and setting. In cells and extracts the contact can be indirect. Binding can be weak; no strength is given. Sequences can lack the tags named with a protein.
